{"source": "paper doi:10.1101/402123", "about": "(bioRxiv, 2018)", "key": {"[1]": {"molecular_target": "T1, fluorescein-labeled BP230 peptide 26-55 (human, UniProt Q03001-8 26-55, N-terminal fluorescein)", "T1 peptide (looked up)": "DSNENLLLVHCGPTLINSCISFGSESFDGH", "test": "fluorescence polarisation"}, "[2]": {"molecular_target": "T2, BP230 10-162 S43D (human) (UniProt Q03001)", "T2 sequence (chain, Oregon Green 488 on thiol groups)": "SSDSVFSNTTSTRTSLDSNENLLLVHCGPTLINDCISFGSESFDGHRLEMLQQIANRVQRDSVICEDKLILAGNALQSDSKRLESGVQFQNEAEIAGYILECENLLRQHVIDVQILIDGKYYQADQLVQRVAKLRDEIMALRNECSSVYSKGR", "test": "fluorescence polarisation"}, "BP230 10-162 (human) [3]": {"molecular_target": "T3, BP230 10-162 (human) (UniProt Q03001)", "T3 sequence (chain, Oregon Green 488 on thiol groups (fluorescence anisotropy assay))": "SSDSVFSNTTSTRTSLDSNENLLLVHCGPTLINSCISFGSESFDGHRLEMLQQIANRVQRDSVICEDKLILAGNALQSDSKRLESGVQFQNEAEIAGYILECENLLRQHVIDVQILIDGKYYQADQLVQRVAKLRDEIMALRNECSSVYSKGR", "test": "fluorescence polarisation"}, "[4]": {"molecular_target": "T4, BP230/plectin chimera (BP230 19-58 and the SR2 of plectin, 420-530) (UniProt Q03001)", "T4 sequence (chain, Oregon Green 488 on thiol groups)": "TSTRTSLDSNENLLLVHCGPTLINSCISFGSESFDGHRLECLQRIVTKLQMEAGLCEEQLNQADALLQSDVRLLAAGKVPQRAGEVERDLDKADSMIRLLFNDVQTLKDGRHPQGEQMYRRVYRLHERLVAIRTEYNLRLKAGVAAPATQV", "test": "fluorescence polarisation"}, "BP230 10-162 (human) [5]": {"molecular_target": "T3, BP230 10-162 (human)", "test": "SEC"}, "[6]": {"molecular_target": "T5, BP230 SR2 (56-162) (human) (UniProt Q03001)", "T5 sequence (chain, Oregon Green 488 on thiol groups (fluorescence anisotropy assay))": "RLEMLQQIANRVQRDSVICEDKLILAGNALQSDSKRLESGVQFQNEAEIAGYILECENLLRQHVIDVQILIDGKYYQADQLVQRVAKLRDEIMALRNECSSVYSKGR", "test": "SEC"}}, "note": "These are yes or no findings as the source states them, for the method shown. Some binding calls cover weakened binding; strength is not graded here. No end group written: not given here. fluorescein = N-terminal fluorescein label", "data": [{"binder": "integrin β4 1436-1666 (β4-CS-FnIII-3,4) (domain or fragment, human, UniProt P16144-2 1436-1666, looked up) LPRDYSTLTSVSSHDSRLTAGVPDTPTRLVFSALGPTSLRVSWQEPRCERPLQGYSVEYQLLNGGELHRLNIPNPAQTSVVVEDLLPNHSYVFRVRAQSQEGWGREREGVITIESQVHPQSPLCPLPGSAFTLSTPSAPGPLVFTALSPDSLQLSWERPRRPNGDIVGYLVTCEMAQGGGPATAFRVDGDSPESRLTVPGLSENVPYKFKVQARTTEGFGPEREGIITIES", "values": [{"measurement": "binding", "setting": "[1]", "value": "binds weakly"}, {"measurement": "binding", "setting": "[2]", "value": "binds weakly"}, {"measurement": "binding", "setting": "BP230 10-162 (human) [3]", "value": "binds weakly"}, {"measurement": "binding", "setting": "[4]", "value": "binds weakly"}, {"measurement": "binding", "setting": "BP230 10-162 (human) [5]", "value": "binds weakly"}, {"measurement": "binding", "setting": "[6]", "value": "no binding"}]}]}
